US20240139220A1, “TREATMENT OF HPV INFECTION” (priority 2022, published 2024)
Some entries share one result that the patent states for a list of compounds. For at least one compound, name, drawing or mass did not settle the structure.

Test: Solubility in buffers, water and simulated vaginal fluid at 37° C.
Assay type: physicochemical
Details: five media: pH 3.0 citrate, pH 4.5 acetate, pH 6.8 phosphate buffer, water, simulated vaginal fluid, 0.5 h and 2 h
Protocol: About 4 mg of Compound I Pattern 1 was added into 2 mL of buffer solution.
(§1) Solubility was tested in five media, pH 3.0 citrate buffer, pH 4.5 acetate buffer, pH 6.8 phosphate buffer, water, simulated vaginal fluid (pH 4.2) at 37° C. for 0.5 h and 2 h.
The salt amount used is equivalent to 10 mg anhydrous free base. […] The obtained clear solutions were analyzed by pH meter for pH, and solubility was determined by observation.
as §1

Row | Compound | Solubility in the media [µg/mL]
1 | CCOC(=O)C(C)NP(=O)(COCCn1cnc2c(OC)nc(N)nc21)OCc1ccccc1.O=C(O)C=CC(=O)O (centres unmarked) [Compound II Pattern 1] | > 2000
2 | CCOC(=O)C(C)NP(=O)(COCCn1cnc2c(OC)nc(N)nc21)OCc1ccccc1.O=C(O)C=CC(=O)O (centres unmarked) [Compound III Pattern 2] | > 2000
